Values from PubChem BioAssay AID1159584 (Peter MacCallum Cancer Centre, 2016)
Aim: 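Genes whose loss is lethal only together with E-cadherin loss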 (primary screen). Cells: human MCF10A breast epithelial cells, parental and CDH1-null. Reagents: siRNA against human genes. Measured: 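Cell viability by CellTiter-Glo ATP luminescence, each line scaled to the mean of mock wells across plates, then CDH1-null over parental ratio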. Direction: CDH1-null / parental viability ratio: higher = CDH1-null cells survive relatively better than parental; CDH1-null viability vs mock: higher = more viable CDH1-null cells; parental viability vs mock: higher = more viable parental cells.
This is an unselected part of about 18,000 reagents tested. Reagent sequences are not shown. The record does not give: the amount of reagent, the time to read-out.

no.	gene symbol	CDH1-null / parental viability ratio	CDH1-null viability vs mock (fraction of mock)	parental viability vs mock (fraction of mock)
1	ZNF565 (zinc finger protein 565)	1.02	0.88	0.86
2	HOXB1 (homeobox B1)	0.98	1.03	1.05
3	ADAMTS15 (ADAM metallopeptidase with thrombospondin type 1 motif 15)	1.17	0.94	0.8
4	TPD52L1 (TPD52 like 1)	1.04	0.76	0.73
5	VAMP3 (vesicle associated membrane protein 3)	1.23	0.8	0.65
6	CLIC1 (CLIC family member 1)	1.7	0.92	0.54
7	PEX5 (peroxisomal biogenesis factor 5)	1.08	1.08	1
8	SSX2IP (SSX family member 2 interacting protein)	0.92	0.68	0.74
9	FUS (FUS DNA/RNA binding protein)	0.79	0.64	0.81
10	LOC400576 (retired record)	1.02	1.06	1.04
11	ELAPOR2	0.92	0.8	0.87
12	PAK6 (p21 (RAC1) activated kinase 6)	0.98	0.9	0.92
13	INSM1 (INSM transcriptional repressor 1)	0.95	0.54	0.57
14	DARS1 (aspartyl-tRNA synthetase 1)	0.55	0.4	0.73
15	APBB1 (amyloid beta precursor protein binding family B member 1)	1.36	0.76	0.56
16	CYP11B2 (cytochrome P450 family 11 subfamily B member 2)	1.06	0.92	0.87
17	ZNF605 (zinc finger protein 605)	1.26	0.92	0.73
18	GPR78 (G protein-coupled receptor 78)	1.48	0.9	0.61
19	HS2ST1 (heparan sulfate 2-O-sulfotransferase 1)	1.01	0.93	0.92
20	NOP53 (NOP53 ribosome biogenesis factor)	0.74	0.4	0.54
21	EPO (erythropoietin)	1.21	0.51	0.42
22	CFAP58 (cilia and flagella associated protein 58)	1.03	0.8	0.78
23	OR2T1 (olfactory receptor family 2 subfamily T member 1)	0.69	0.61	0.88
24	ARHGAP25 (Rho GTPase activating protein 25)	0.74	0.62	0.84
25	EOGT (EGF domain specific O-linked N-acetylglucosamine transferase)	1.07	0.93	0.87
26	SLC22A3	0.86	0.54	0.63
27	ST6GALNAC5 (ST6 N-acetylgalactosaminide alpha-2,6-sialyltransferase 5)	1.01	1.08	1.07
28	SLC25A38	0.94	0.94	1
29	FTH1 (ferritin heavy chain 1)	0.88	1	1.14
30	CACNA1C (calcium voltage-gated channel subunit alpha1 C)	1.09	0.88	0.81
31	OR10Q1 (olfactory receptor family 10 subfamily Q member 1)	0.73	0.44	0.6
32	CABIN1 (calcineurin binding protein 1)	1.19	1.05	0.88
33	SHF (Src homology 2 domain containing F)	1.33	0.6	0.45
34	TNFSF4 (TNF superfamily member 4)	1.37	0.93	0.68
35	C1QA (complement C1q A chain)	2.05	0.8	0.39
36	FBXO32 (F-box protein 32)	0.86	0.55	0.64
37	MAGI1	0.85	0.71	0.84
38	FAM149A (family with sequence similarity 149 member A)	0.79	0.83	1.05
39	EIF3H (eukaryotic translation initiation factor 3 subunit H)	1.25	0.8	0.64
40	ACSM2B (acyl-CoA synthetase medium chain family member 2B)	1.14	0.88	0.77
41	PLAUR (plasminogen activator, urokinase receptor)	0.79	0.69	0.87
42	AGPAT4 (1-acylglycerol-3-phosphate O-acyltransferase 4)	0.98	0.94	0.96
43	SCYL3 (SCY1 like pseudokinase 3)	0.84	0.59	0.7
44	KRT79 (keratin 79)	1.34	0.78	0.58
45	GAS2L2 (growth arrest specific 2 like 2)	0.86	0.76	0.88
46	KBTBD7 (kelch repeat and BTB domain containing 7)	1.13	0.94	0.83
